The values are deposited in ChEMBL (CHEMBL3988442, “University of Dundee, Small-Polar-MMV Screening Library” (2021)).

Sequences of proteins named here, by UniProt entry; tags and fusion partners are left off.
UniProt P9WNZ1, whole entry: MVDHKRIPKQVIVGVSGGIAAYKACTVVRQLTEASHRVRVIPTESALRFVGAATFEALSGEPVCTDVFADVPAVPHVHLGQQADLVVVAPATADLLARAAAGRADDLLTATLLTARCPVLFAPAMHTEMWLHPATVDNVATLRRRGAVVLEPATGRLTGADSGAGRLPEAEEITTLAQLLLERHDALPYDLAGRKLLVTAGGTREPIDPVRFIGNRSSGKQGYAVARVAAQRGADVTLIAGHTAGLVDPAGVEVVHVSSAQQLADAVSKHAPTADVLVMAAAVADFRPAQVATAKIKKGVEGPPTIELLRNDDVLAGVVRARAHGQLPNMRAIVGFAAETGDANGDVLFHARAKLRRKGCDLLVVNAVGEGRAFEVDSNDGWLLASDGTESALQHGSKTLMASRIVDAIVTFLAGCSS

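Enzyme assay of CoaBC with a phosphate dye (Biomol Green) read at 650 nm. Target: Coenzyme A biosynthesis protein CoaBC, Mycobacterium tuberculosis (UniProt P9WNZ1). Compounds at 30 µM. Direction is inferred from only a few compounds that gave an IC50; most scored high, so higher reads as stronger inhibition. Most strong results did not repeat in a second test. About 67,000 compounds were tested under these conditions; 0.06% (about 40) showed 50% or more at least once.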

The filed quantity is “Percent Effect” (%). How 0% and 100% were set is not recorded. Most values in the screen are low, and negative values occur. This is an unselected part of the compounds tested.

| SMILES | percent effect |
|---|---|
| `O=C1OCCN1Cc1ncnn1Cc1c(F)cccc1Cl` | 4.978 |
| `COC1CCN(CCNc2ncc(Br)cc2C)CC1` | 7.042 |
| `CNc1cccc(C2CCCN(C(=O)c3cncs3)C2)n1` (stereo not given) | -1.695 |
| `C[C@]1(O)CN(Cc2cccc(C(=O)O)c2)CC[C@@H]1Oc1cccc(F)c1` | -1.699 |
| `CCCc1cc(=O)[nH]c2nnc(SCC(=O)NCc3ccc(C)cc3)n12` | 6.61 |
| `COC(=O)[C@H]1CN(C(C)=O)CCN1C(C)=O` | -15.13 |
| `Cc1cnn(C2CCCN(C(=O)Cc3ccc(-n4cccn4)cc3)C2)c1` (stereo not given) | 2.738 |
| `Cc1noc(NC(=O)c2ccc(OC(F)(F)F)cc2)n1` | 10.85 |
| `CCCN1CCN(C(=O)c2ccn(COc3ccc(F)cc3)n2)CC1` | 3.464 |
| `CCc1noc(C2CCCCN2C(=O)c2cc(C)on2)n1` (stereo not given) | -0.9238 |
| `OCC1CCCCN1CCn1ccnc1-c1ccc2c(c1)OCCO2` (stereo not given) | 10.2 |
| `Cn1cnc2c(N3CCOCC3)nc(C3CCNCC3)cc21` | 0.3257 |
| `CCn1nc(C)cc1C(=O)N1CC[C@H](OC)[C@H]2CN(CC3CC3)C[C@H]21` | -2.804 |
| `COC(=O)CCCN(C)C(=O)c1cc(F)cc2[nH]cnc12` | 3.89 |
| `Cc1nnc([C@@H]2CCO[C@@H]3CCN(C(=O)Cc4ccccn4)C[C@@H]32)o1` | 8.35 |
| `CC(=O)N1CCC2(CC1)CC(C(C)C)=NO2` | -3.158 |
| `O=C(C1CC(c2cccc(F)c2)=NO1)N1CCc2ccccc21` (stereo not given) | -3.648 |
| `CC(C)(C)c1ccc(C2(C(=O)NCCS(N)(=O)=O)CC2)cc1` | 7.273 |
| `Cc1ccc(F)c(C(=O)Nc2cccc(CCN3CCCC3)c2)c1` | -23.58 |
| `COc1ccc(-c2cc(C3CCNCC3)ccn2)cc1` | -3.73 |
| `COc1ncc(C(=O)NCc2ccccc2)cn1` | 2.635 |
| `CN(C)CCNC(=O)CCC1CCN(C(=O)c2ccc(O)cn2)CC1` | 14.82 |
| `O=C(O)C1(Cc2ccc(F)cc2F)CCCN(Cc2ccncc2)C1` (stereo not given) | 5.446 |
| `N#Cc1ccc(C(=O)NS(=O)(=O)c2ccc(C#N)c(Cl)c2)cc1` | -0.2415 |
| `COCC(O)CN(C)C(=O)NC1CCN(S(C)(=O)=O)CC1` (stereo not given) | 8.264 |
| `Cc1nc(CN2CCC(c3ccnn3CCO)CC2)oc1C` | 1.136 |
| `Cc1cc(CN(C2CC2)C(C)C(C)C)on1` (stereo not given) | 1.238 |
| `Cc1oc(-c2ccccc2)nc1CC(=O)NC1=NCCS1` | 1.499 |
| `CCS(=O)(=O)CCNCc1cc(O)c2cc(C)cc(C)c2n1` | -1.85 |
| `CCn1ncc(S(=O)(=O)N[C@@H]2CCC[C@@H](n3ccnc3)[C@@H]2O)c1C` | 1.196 |
| `O=C(NCCNc1ncccn1)c1scnc1Cl` | -0.9804 |
| `CCNC(=O)C1CCN(c2nccc(C3CCCC3)n2)C1` (stereo not given) | 0.4831 |
| `Cc1ncc(CNCCO)c2cc(C(=O)c3ccc(Br)cc3)oc12` | 3.148 |
| `c1ccc(N2CC[C@H](OCC3CC3)[C@@H]2Cc2cccnc2)nc1` | 3.273 |
| `CC1c2cccn2CCN1S(=O)(=O)N1CCCCCC1` (stereo not given) | -0.2445 |
| `CNC(=O)N1CCC2(CC1)CNc1ccc(F)cc12` | 0.8333 |
| `COc1ccsc1C(=O)NC1CCN(c2cccc(F)c2)CC1` | -0.9709 |
| `Cc1ccc2oc(N3CCN(CC(=O)NC(C)C)CC3)nc2c1` | 11.88 |
| `O=C(NCCCN1CCOCC1)c1ccc(-c2ccccc2)[nH]c1=O` | 1.653 |
| `Cn1cc(C(=O)OC2CN(c3nc4c(C(F)(F)F)cccc4s3)C2)nn1` | -0.1272 |
| `NC(=O)c1cccc(CC2CCN(C(=O)Cn3cnnn3)C2)c1` (stereo not given) | -0.3619 |
| `O=c1cc(-c2ccncc2)nc(-c2ccc(CN3CC[C@H](O)C3)cc2)[nH]1` | -2.057 |
| `Cc1noc(C)c1C(C)C(=O)N1CCCN(C)c2ccc(Cl)cc21` (stereo not given) | 0.9709 |
| `CC(C)CCNC(=O)NC(C)c1nncn1C` (stereo not given) | 0.3444 |
| `CCC(C)NC(=O)N1CCCn2cnc(CO)c2C1` (stereo not given) | -6.667 |
| `CSCC(=O)N1CCCC(CO)(CC2CC2)C1` (stereo not given) | 5.281 |
| `CN(CCCOc1ccccc1)Cc1nccn1C` | 2.163 |
| `Cc1cc(C)cc(C(=O)N2CCN(C(=O)N(C)C)CC2(C)C)c1` | 5.45 |
| `CCc1ccc(N2CCC(NS(=O)(=O)N(CC)CC)CC2)cc1` | 4.204 |
| `CCn1c(C2CCCN(Cc3cc(F)ccc3OC)C2)nn(C)c1=O` (stereo not given) | 2.575 |
| `Cc1n[nH]c(CN2CCN(c3ncnc4scc(C)c34)CC2)c1Cl` | 2.228 |
| `COC(=O)C1CCCCN1C(=O)c1cn(C/C=C/c2ccccc2)nn1` (stereo not given) | -4.326 |
| `Cn1ccnc1CN1CCCN(C(=O)c2ccc3[nH]nnc3c2)CC1` | 1.405 |
| `CCN(Cc1ccccc1)C(=O)CN1CCCC(Cn2cncn2)C1` (stereo not given) | 5.843 |
| `COc1ccccc1C(O)CNC(=O)NCc1csc(C)n1` (stereo not given) | 6.633 |
| `O=C1CC[C@@H](C(=O)N2CCC(Cn3cc(C4CCCCC4)nn3)CC2)N1` | -4.054 |
| `NCc1cnn(-c2ccccc2C(=O)NCCc2ccccn2)c1` | 7.807 |
| `Cc1nnc(-c2cccc(C#N)c2)n1C1CCN(C(C)C)C1=O` (stereo not given) | -3.137 |
| `Cc1cn2c(CN(C)C(=O)c3cccnc3O)c(C)nc2s1` | -2.727 |
| `Fc1cnc(N2CCC3(CC2)CN(Cc2cccs2)CCO3)nc1` | 3.758 |
| `Cc1cc(C)cc(OCCCn2nc3ccccn3c2=O)c1` | 5.189 |
| `COC(=O)c1cccc(C2CNCCN2C)c1` (stereo not given) | -10.29 |
| `CCOc1ccc(-c2c(-c3ccccc3)ncn2C2CCNC2)cn1` (stereo not given) | -32 |
| `Cc1csc2ncc(-c3ccnc(N4CCC[C@H](C(N)=O)C4)n3)c(=O)n12` | -1.325 |
| `CC(=O)N1CCN(c2cc(C3CN(C)CCO3)nc(C)n2)CC1` (stereo not given) | -2.222 |
| `O=C(Cn1cnc2ccccc2c1=O)Nc1cc(C2CC2)n[nH]1` | 6.048 |
| `CC(=O)N1CCN(C(=O)CN2CCc3c(ncn3C3CC3)C2)CC1` | 7.572 |
| `CC(CNC(=O)CCCn1cncn1)N1CCc2ccccc2C1` (stereo not given) | -2.187 |
| `Cn1cc(NC(=O)Nc2cccc3cccnc23)ccc1=O` | 6.962 |
| `CC(C)C(=O)N1CCCC2(CCCN2Cc2cccnc2)C1` (stereo not given) | 5.092 |
| `OCC(CO)Nc1cccc(C(F)(F)F)n1` | 0 |
| `CC(C)CNC(=O)[C@H]1CCS(=O)(=O)[C@@H]2CN(c3ncccn3)C[C@H]12` | 3.094 |
| `Cc1cccc(OCCC(=O)NCC(C)(C)C(N)=O)c1` | -4.787 |
| `Cc1cc2cccc(NC(=O)N3CCC(N4CCSCC4)CC3)c2o1` | 6.264 |
| `CC(NC(=O)CCC(C)(C)C)C(=O)Nc1ccc(-n2cncn2)cc1` (stereo not given) | -2.433 |
| `COCCC1COC2(CCN(C(=O)c3ccco3)CC2)C1` (stereo not given) | 8.808 |
| `c1cncc(O[C@H]2CC[C@H]3[C@H]2OCCN3C2CCC2)c1` | 0.1233 |
| `N#Cc1cccc(C(=O)N2CCC(Nc3cccnn3)CC2)c1` | 2.968 |
| `CN1CCN(Cc2cn3c(n2)CN(C(=O)c2ccco2)CC3)CC1` | 0.3226 |
| `CCC1CCCCCN1C(=O)c1coc(S(=O)(=O)N(C)C)c1` (stereo not given) | 4.839 |
| `Cc1nc(N)nc(C)c1CC(=O)NCc1ccc2nonc2c1` | 3.893 |
| `CN(Cc1csc(-c2ccccc2)n1)Cc1ncccc1C(=O)O` | -0.4866 |
| `O=C(CCn1nc(C(F)(F)F)c(Br)c1C1CC1)NN1CCOCC1` | 1.899 |
| `Cc1ccc(N2CCCC(NCc3cccc4c3OCCO4)C2)nn1` (stereo not given) | 6.524 |
| `Cn1ccc2c(C(=O)N3CC[C@@]4(O)CCCC[C@H]4C3)cccc21` | -1.01 |
| `COCC(=O)N1C[C@@H](c2cccc(F)c2)[C@H]2[C@H]1CCCCCN2C(C)=O` | 6.833 |
| `CS(=O)(=O)NC1CCCN(C(=O)COCc2ccccc2)C1` (stereo not given) | 5.882 |
| `Cc1cccc(S(=O)(=O)NCC(C)N2CCN(C)CC2)c1Cl` (stereo not given) | -26.36 |
| `COc1cccc(CNc2cccnc2-n2cccn2)c1OC` | -2.067 |
| `Cc1ccc(C(=O)NS(=O)(=O)Cc2ccccc2)cc1S(C)(=O)=O` | 5.825 |
| `Cc1ccc(CN2CCc3[nH]nc(C(=O)N4CCN(C)CC4)c3C2)o1` | -1.018 |
| `Fc1ccc(-c2nc(CN3CCCC3Cn3cncn3)co2)cc1` (stereo not given) | 11.14 |

The last 8 entries again:

SMILES	percent effect
Cn1ccc2c(C(=O)N3CC[C@@]4(O)CCCC[C@H]4C3)cccc21	-1.01
COCC(=O)N1C[C@@H](c2cccc(F)c2)[C@H]2[C@H]1CCCCCN2C(C)=O	6.833
CS(=O)(=O)NC1CCCN(C(=O)COCc2ccccc2)C1 (stereo not given)	5.882
Cc1cccc(S(=O)(=O)NCC(C)N2CCN(C)CC2)c1Cl (stereo not given)	-26.36
COc1cccc(CNc2cccnc2-n2cccn2)c1OC	-2.067
Cc1ccc(C(=O)NS(=O)(=O)Cc2ccccc2)cc1S(C)(=O)=O	5.825
Cc1ccc(CN2CCc3[nH]nc(C(=O)N4CCN(C)CC4)c3C2)o1	-1.018
Fc1ccc(-c2nc(CN3CCCC3Cn3cncn3)co2)cc1 (stereo not given)	11.14